# Results reported in PubChem BioAssay AID587 (National Center for Advancing Translational Sciences (NCATS), 2007).
# The campaign covered roughly 59,000 compounds. About 35 (0.06%) were called active. Inconclusive results, whose numbers are uncertain, are shown with a selection of clear calls. Rule as the data show it: active = max dye-equivalent concentration above about 10 nM; inconclusive = between about 1.1 nM and that limit; inactive = weaker than that.
# Assay: qHTS Assay for Spectroscopic Profiling in Texas Red Spectral Region
# Conditions: Compound fluorescence, Texas Red channel, 547/618 nm; active compounds read high
# Method in brief: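 Texas Red-region profiling: compounds in 100 mM Tris pH 8.0 were read at 547/618 nm after 15 min at room temperature. Intensities were normalized against a six-point Texas Red standard series to give dye-equivalent concentration.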
row,SMILES,max dye-equivalent concentration
1,CC(OC(=O)c1cc2sccc2n1C)C(=O)NCc1ccco1 (stereo not drawn),inconclusive: 1.9 nM
2,Cc1c(N(C(=O)Nc2ccccc2)C2=NCC(C)S2)c(=O)n(-c2ccccc2)n1C (stereo not drawn),inconclusive: 2.7 nM
3,Cc1ccc2[nH]c(C)c(CN(C)C3CCN(C)CC3)c(=O)c2c1,inconclusive: 2.5 nM
4,O=C(Cn1cnc2c(nnn2Cc2ccc(F)cc2)c1=O)N1CCCc2ccccc21,inconclusive: 1.6 nM
5,COc1cccc(=O)c2c(C)oc(C)c12,inactive
6,Nc1nc2ccccc2n1/N=C/c1ccc(-c2ccccc2)o1,inconclusive: 1.1 nM
7,C[C@H]1CCCC=CC2C[C@H](OC(=O)CN(C)C)C[C@@H]2[C@@H](O)/C=C\C(=O)O1 (stereo partly drawn),inactive
8,O=C(O)c1cccnc1,inconclusive: 1.4 nM
9,CC(=O)c1c(N2CCN(Cc3ccc4c(c3)OCO4)CC2)nc(=S)n(-c2ccccc2)c1C,inconclusive: 2.1 nM
10,CCOc1ccccc1Oc1coc2cc(OC(=O)c3ccco3)ccc2c1=O,inconclusive: 1.1 nM
11,COc1cccc(Cn2c(=O)cnc3cnc(OC)nc32)c1,inactive
12,O=C(CN1CCOCC1)Nc1ccccc1NC(=O)C1CCN(c2ncccn2)CC1,inconclusive: 2.9 nM
13,CCCCn1nc(NC(=O)c2cccs2)c2cc3cc(OC)ccc3nc21,inconclusive: 1.6 nM
14,COc1ccc2c(c1)[C@]1(C)CCC[C@](C)(CO)[C@@H]1CC2,inactive
15,Cn1c(=O)c(-c2ccccc2)nc2cnc(N3CCNCC3)nc21,inactive
16,O=C(c1ccco1)N1CCN(C(=O)c2cc3c(=O)oc4ccccc4c3s2)CC1,inconclusive: 1.1 nM
17,COCC(=O)N1CCC2(CC1)CN(c1cccc(-c3ccccc3)c1)C2,inactive
18,CCOC(=O)Nc1cccc(OCC(=O)Nc2ccccc2OC)c1,inconclusive: 2.8 nM
19,COc1ccccc1N1CCN(C(=O)C(NS(=O)(=O)c2cccs2)c2ccccc2)CC1 (stereo not drawn),inconclusive: 2.5 nM
20,CSc1ccn(CCC(=O)O)c(=O)n1,inconclusive: 1.2 nM
21,CS(=O)(=O)N(CC(=O)NC1CC1)c1cccc(F)c1,inconclusive: 1.6 nM
22,COC(=O)COc1ccc(S(=O)(=O)NCc2cccnc2)cc1C,inconclusive: 1.1 nM

row,SMILES,max dye-equivalent concentration
1,CC(=O)c1cc(-c2ccccc2)n(CC(=O)N2CCC(N3CCCCC3)CC2)c1C,inconclusive: 1.1 nM
2,CCc1ccc2oc(=O)cc(CN3CCCCC3C)c2c1 (stereo not drawn),inactive
3,CC(=O)c1ccc(N2CCN(C(=O)c3ccco3)C(C)C2)c(F)c1 (stereo not drawn),inconclusive: 1.1 nM
4,CCOc1ccc2nc(N3CCCCCC3)sc2c1,inconclusive: 1.5 nM
5,Cc1ccc(-n2c(SCC(=O)N3CCOCC3)nnc2-c2cccnc2)cc1,inconclusive: 1.6 nM
6,CC1(C)CCC[C@@]2(C)[C@@H]1CC[C@]1(C)OC(=O)C[C@@H]21,inactive
7,O=C1OC(=O)[C@@H]2[C@@H]1[C@@H]1CC[C@H]2O1,inactive
8,COc1ccc(C(=O)Nc2ccc(Cl)c(Cl)c2)c(OC)n1,inconclusive: 1.6 nM
9,O=C(NCc1cccnc1)c1ccc(Cl)c(Cl)c1,inconclusive: 2.1 nM
10,CCS(=O)(=O)Nc1ccc(C(=O)CC2(O)C(=O)Nc3ccc(Br)cc32)cc1 (stereo not drawn),inconclusive: 1.1 nM
11,COC(=O)c1ccc(CSc2nnc3n(Cc4ccccc4OC)c(=O)c4ccccc4n23)o1,inconclusive: 1.3 nM
12,CCCOc1ccccc1Cn1c(=O)oc2ccc(C)cc21,inconclusive: 1.4 nM
13,N=c1ccn2c(n1)O[C@@H]1[C@@H](O)[C@H](CO)O[C@H]12,inactive
14,COc1cccc(C(=O)NC2CCN(CC(=O)NCc3ccccc3OC)CC2)c1,inconclusive: 1.7 nM
15,Cc1onc(-c2ccccc2Cl)c1C(=O)NCc1nc(-c2ccccc2)no1,inactive
16,Cc1cc(C(=O)CSc2nnnn2-c2ccccc2)c(C)n1CC1CCCO1 (stereo not drawn),inconclusive: 1.6 nM
17,OC(COc1ccc2c(c1)CCC2)CN1CCN(c2ccccc2F)CC1 (stereo not drawn),inconclusive: 1.1 nM
18,Cc1noc(C)c1CSc1nc2ccccc2n1CCc1ccccc1,inconclusive: 1.3 nM
19,C[C@H]1[C@H](O)[C@@H](C)C=CC=CC=CC=CC=CC=CC=C[C@H](O[C@@H]2O[C@@H](C)[C@H](O)[C@@H](N)[C@@H]2O)C[C@@H]2O[C@](O)(C[C@@H](O)C[C@@H](O)[C@@H](O)CC[C@@H](O)C[C@@H](O)CC(=O)O[C@H]1C)C[C@H](O)[C@H]2C(=O)O,inactive
20,CC(C)(C)NC(=O)Cn1cc(C#N)c2cc(Br)ccc21,inconclusive: 1.2 nM
21,C/C(O)=C(\C#N)c1nnc2n1CCCCC2,inconclusive: 1.7 nM

# Of the compounds above, 2 have a cyano group.
row,SMILES,max dye-equivalent concentration
20,CC(C)(C)NC(=O)Cn1cc(C#N)c2cc(Br)ccc21,inconclusive: 1.2 nM
21,C/C(O)=C(\C#N)c1nnc2n1CCCCC2,inconclusive: 1.7 nM
